Article doi:10.1101/2023.08.30.555532
Read-outs that look alike come from different tables or passages of the source. Results are given in words; binding and its absence hold for the method and conditions named. In cells and extracts the contact can be indirect. Here binding means that the protein was enriched with, or labelled near, the bait; the list need not be complete. Sequences can lack the tags named with a protein.

Amino acid sequences for entries named in this document (tags omitted).
UniProt Q9UHP3: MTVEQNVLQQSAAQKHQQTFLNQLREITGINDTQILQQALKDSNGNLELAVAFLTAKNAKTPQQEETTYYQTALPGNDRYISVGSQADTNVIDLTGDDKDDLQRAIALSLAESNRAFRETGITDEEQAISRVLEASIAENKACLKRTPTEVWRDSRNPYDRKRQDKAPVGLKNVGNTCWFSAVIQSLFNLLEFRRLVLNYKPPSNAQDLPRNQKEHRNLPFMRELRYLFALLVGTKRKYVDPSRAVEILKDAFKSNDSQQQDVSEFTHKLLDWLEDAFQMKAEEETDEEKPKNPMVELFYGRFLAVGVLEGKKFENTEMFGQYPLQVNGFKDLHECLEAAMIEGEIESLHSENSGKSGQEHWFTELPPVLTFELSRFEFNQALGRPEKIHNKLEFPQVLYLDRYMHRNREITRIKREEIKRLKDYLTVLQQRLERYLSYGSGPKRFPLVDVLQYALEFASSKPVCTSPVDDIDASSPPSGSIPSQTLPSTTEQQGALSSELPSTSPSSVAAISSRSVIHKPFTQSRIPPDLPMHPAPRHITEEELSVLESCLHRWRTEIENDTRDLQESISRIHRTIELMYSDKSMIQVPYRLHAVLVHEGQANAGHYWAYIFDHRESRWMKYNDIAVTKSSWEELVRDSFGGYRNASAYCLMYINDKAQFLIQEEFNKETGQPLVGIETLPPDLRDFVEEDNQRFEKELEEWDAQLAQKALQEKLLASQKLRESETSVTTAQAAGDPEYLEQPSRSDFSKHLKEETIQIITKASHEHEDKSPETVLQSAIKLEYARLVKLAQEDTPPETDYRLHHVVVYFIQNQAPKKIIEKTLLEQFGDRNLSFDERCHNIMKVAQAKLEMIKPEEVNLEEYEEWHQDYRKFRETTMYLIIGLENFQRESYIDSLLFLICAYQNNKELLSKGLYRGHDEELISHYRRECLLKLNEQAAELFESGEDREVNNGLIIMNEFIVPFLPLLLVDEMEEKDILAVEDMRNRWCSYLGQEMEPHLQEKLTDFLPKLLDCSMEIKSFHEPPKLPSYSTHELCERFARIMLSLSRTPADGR

T1: Flag-GC (UniProt P02774)
T1 sequence: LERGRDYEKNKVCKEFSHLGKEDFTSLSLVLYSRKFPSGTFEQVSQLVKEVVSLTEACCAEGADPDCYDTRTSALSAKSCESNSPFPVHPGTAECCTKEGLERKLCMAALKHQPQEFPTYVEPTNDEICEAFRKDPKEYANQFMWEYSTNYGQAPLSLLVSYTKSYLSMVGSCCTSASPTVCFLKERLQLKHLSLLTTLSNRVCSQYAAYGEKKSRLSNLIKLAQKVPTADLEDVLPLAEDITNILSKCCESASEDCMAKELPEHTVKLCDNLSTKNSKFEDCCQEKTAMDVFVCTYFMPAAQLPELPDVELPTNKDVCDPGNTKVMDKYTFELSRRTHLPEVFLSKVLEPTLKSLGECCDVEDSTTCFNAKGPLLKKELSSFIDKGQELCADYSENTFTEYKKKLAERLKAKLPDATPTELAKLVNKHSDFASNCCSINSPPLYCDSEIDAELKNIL


Key:
Flag-GC [1] = molecular target: T1, Flag-GC; test: affinity purification with mass spectrometry
Flag-GC [2] = molecular target: T1, Flag-GC; test: affinity purification with mass spectrometry; remark: listed apart in the source

Molecule | binding (Flag-GC [1]) | binding (Flag-GC [2])
USP25 (from UniProt Q9UHP3 1-1055) (enzyme) | binds | 
DNase1L3 (endogenous, PLC-PRF-5 cells) (enzyme, UniProt Q13609 21-305) MRICSFNVRSFGESKQEDKNAMDVIVKVIKRCDIILVMEIKDSNNRICPILMEKLNRNSRRGITYNYVISSRLGRNTYKEQYAFLYKEKLVSVKRSYHYHDYQDGDADVFSREPFVVWFQSPHTAVKDFVIIPLHTTPETSVKEIDELVEVYTDVKHRWKAENFIFMGDFNAGCSYVPKKAWKNIRLRTDPRFVWLIGDQEDTTVKKSTNCAYDRIVLRGQEIVSSVVPKSNSVFDFQKAYKLTEEEALDVSDHFPVEFKLQSSRAFTNSKKSVTLRKKTKSKRS |  | binds
